Data: paper PMC12216596
No constants are given. Whether binding was seen depends on the method and setting. In cells and extracts the contact can be indirect. Some entries that bind do so weakly or less than the wild type.

Protein sequences, listed by entry. Tags and fused reporters are not part of them.
UniProt Q3UIR3: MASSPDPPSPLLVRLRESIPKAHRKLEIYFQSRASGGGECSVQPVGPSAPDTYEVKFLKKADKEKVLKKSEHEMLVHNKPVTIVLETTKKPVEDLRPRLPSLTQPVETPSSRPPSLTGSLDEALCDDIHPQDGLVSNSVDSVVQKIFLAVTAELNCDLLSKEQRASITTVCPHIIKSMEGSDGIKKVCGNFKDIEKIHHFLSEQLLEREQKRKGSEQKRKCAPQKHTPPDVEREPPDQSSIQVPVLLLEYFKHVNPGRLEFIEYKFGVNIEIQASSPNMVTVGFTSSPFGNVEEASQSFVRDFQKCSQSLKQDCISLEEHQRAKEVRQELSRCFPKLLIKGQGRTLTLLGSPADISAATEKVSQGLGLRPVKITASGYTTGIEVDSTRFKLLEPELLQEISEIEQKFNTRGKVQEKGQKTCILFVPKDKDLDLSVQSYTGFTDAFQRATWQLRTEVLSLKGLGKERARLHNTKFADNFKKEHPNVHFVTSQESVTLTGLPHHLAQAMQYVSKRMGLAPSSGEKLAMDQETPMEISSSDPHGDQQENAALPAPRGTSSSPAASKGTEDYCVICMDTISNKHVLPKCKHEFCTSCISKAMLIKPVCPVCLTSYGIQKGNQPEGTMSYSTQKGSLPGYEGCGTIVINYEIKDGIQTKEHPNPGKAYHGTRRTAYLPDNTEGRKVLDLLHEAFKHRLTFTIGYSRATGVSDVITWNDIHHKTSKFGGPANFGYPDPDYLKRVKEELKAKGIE

Target: Endogenous DTX3L of mouse peritoneal macrophages (mouse (endogenous in primary peritoneal macrophages)) (UniProt Q3UIR3)
Test: co-IP

B1: Endogenous FPN1 (ferroportin) of mouse peritoneal macrophages (protein, UniProt Q9JHI9 1-570)
chain: MTKARDQTHQEGCCGSLANYLTSAKFLLYLGHSLSTWGDRMWHFAVSVFLVELYGNSLLLTAVYGLVVAGSVLVLGAIIGDWVDKNARLKVAQTSLVVQNVSVILCGIILMMVFLHKNELLTMYHGWVLTVCYILIITIANIANLASTATAITIQRDWIVVVAGENRSRLADMNATIRRIDQLTNILAPMAVGQIMTFGSPVIGCGFISGWNLVSMCVEYFLLWKVYQKTPALAVKAALKVEESELKQLTSPKDTEPKPLEGTHLMGEKDSNIRELECEQEPTCASQMAEPFRTFRDGWVSYYNQPVFLAGMGLAFLYMTVLGFDCITTGYAYTQGLSGSILSILMGASAITGIMGTVAFTWLRRKCGLVRTGLFSGLAQLSCLILCVISVFMPGSPLDLSVSPFEDIRSRFVNVEPVSPTTKIPETVFTTEMHMSNMSNVHEMSTKPIPIVSVSLLFAGVIAARIGLWSFDLTVTQLLQENVIESERGIINGVQNSMNYLLDLLHFIMVILAPNPEAFGLLVLISVSFVAMGHLMYFRFAQKTLGNQIFVCGPDEKEVTDENQPNTSVV
For B1, the binding was “binds”.
